Source: patent US11225470B2, “Tetrazolinone compounds and its use as pest control agents” (SUMITOMO CHEMICAL COMPANY, LIMITED, priority 2016, dated 2022)
Some entries share one result that the patent states for a list of compounds.

Legend:
Format in all cases: in vivo
[1] = tested on: soybean powdery mildew fungi (Erysiphe diffusa); assay: soybean powdery mildew test, spraying after inoculation; conditions: 200 ppm foliar spray 2 days after inoculation; soybean cv KUROSENGOKU
[2] = tested on: soybean rust fungi (Phakopsora pachyrhizi); assay: soybean rust test, spraying before inoculation; conditions: 200 ppm foliar spray, inoculation after 4 days; soybean cv Kurosengoku
[3] = tested on: cucumber downy mildew fungi (Pseudoperonospora cubensis); assay: cucumber downy mildew test; conditions: inoculation after 1 day, cucumber cv SAGAMIHANJIRO
[4] = tested on: soybean frogeye leaf spot disease fungi (Cercospora sojina); assay: soybean frogeye leaf spot test, spraying before inoculation; conditions: inoculation after 2 days; for lesion area compared to the lesion area in an untreated soybean: 200 ppm foliar spray, soybean cv TACHINAGAHA
[5] = tested on: kidney bean sclerotinia rot fungi (Sclerotinia sclerotiorum); assay: kidney bean sclerotinia rot test; conditions: kidney bean cv NAGAUZURA SAITO, observed after four days
[6] = tested on: kidney bean sclerotinia rot fungi (Sclerotinia sclerotiorum); assay: kidney bean sclerotinia rot test, plants placed outside for 6 days before inoculation; conditions: 200 ppm foliar spray, observed after six days
Text: Each of plastic pots was filled with soil and kidney bean (cultivar: NAGAUZURA SAITO) was sown and grown in a greenhouse for 8 days. Then, the comparative test compound cf5, the present compound E-1, E-3, E-11, or E-16, each of which was made to a formulation according to the similar method to that of Formulation Example 6, was mixed with water so as to be 200 ppm. The mixtures were sprayed to foliar parts so as to adhere adequately on the leaves of the above-mentioned kidney bean. After spraying the mixtures, the kidney beans were air-dried, and placed outside for 6 days. Thereafter, a PDA medium containing hyphae of kidney bean sclerotinia rot fungi (Sclerotinia sclerotiorum) was placed on the leaves of the kidney bean. After the inoculation, all kidney beans were placed indoors under a high humidity during only night and after six days, a lesion area was observed.

[7] = tested on: wheat leaf blotch fungi (Septoria tritici); assay: wheat leaf blotch test, spraying after inoculation; conditions: 200 ppm foliar spray 3 days after inoculation; wheat cv APOGEE
[8] = tested on: wheat leaf blotch fungi (Septoria tritici); assay: wheat leaf blotch test, spraying before inoculation; conditions: inoculation after 4 days
[9] = tested on: barley net blotch fungi (Pyrenophora teres); assay: barley net blotch test; conditions: 200 ppm foliar spray, inoculation after 2 days; barley cv MIKAMO GOLDEN
[10] = tested on: wheat brown rust fungi (Puccinia recondita); assay: wheat brown rust test; conditions: inoculation after 5 days, wheat cv SHIROGANE
[11] = tested on: barley scald fungi (Rhynchosporium secalis); assay: barley scald test; conditions: 500 ppm foliar spray, inoculation after 2 days; barley cv NISHINOHOSHI
[12] = tested on: wheat leaf blotch fungi (Septoria tritici); assay: wheat leaf blotch test on 45-day wheat, plants placed outside for 4 days before inoculation; conditions: 300 ppm, 200 L/ha, Formulation Example 4, wheat cv APOGEE grown 45 days
Text: Each of plastic pots was filled with soil and wheat (cultivar: APOGEE) was sown, and the […] grown in a greenhouse for 45 days. Then, the comparative test compound cf3, the present compound E-15, or E-16, each of which was made to a formulation according to the similar method to that of Formulation Example 4, was mixed with water so as to be 300 ppm. The mixtures were sprayed to foliar parts of the wheat by the volume of 200 L/ha. After spraying the mixtures, the […], and placed outside for 4 days. Thereafter, an aqueous suspension of the spores of wheat leaf blotch fungi (Septoria tritici) was spraying-inoculated.

[13] = 200 ppm foliar spray, wheat cv APOGEE
[14] = 500 ppm foliar spray, wheat cv Apogee

Row | Structure (SMILES) | lesion area compared to the lesion area in an untreated soybean [1] [%] | lesion area compared to the lesion area in an untreated soybean [2] [%] | lesion area compared to the lesion area in an untreated cucumber ([3]; 50 ppm foliar spray) [%] | lesion area compared to the lesion area in an untreated soybean [4] [%] | lesion area compared to the lesion area in an untreated kidney bean ([5]; 200 ppm foliar spray) [%] | lesion area compared to the lesion area in an untreated kidney bean [6] [%] | lesion area compared to the lesion area in an untreated wheat [7] [%] | lesion area compared to the lesion area in an untreated wheat [8, 13] [%] | lesion area compared to the lesion area in an untreated barley [9] [%] | lesion area compared to the lesion area in an untreated wheat ([10]; 200 ppm foliar spray) [%] | lesion area compared to the lesion area in an untreated cucumber ([3]; 200 ppm foliar spray) [%] | lesion area compared to the lesion area in an untreated kidney bean ([5]; 500 ppm foliar spray) [%] | lesion area compared to the lesion area in an untreated wheat [8, 14] [%] | lesion area compared to the lesion area in an untreated barley [11] [%] | lesion area compared to the lesion area in an untreated wheat ([10]; 500 ppm foliar spray) [%] | lesion area compared to the lesion area in an untreated wheat [12] [%] | area of lesion compared to that on an untreated bean ([4]; 3.1 ppm foliar spray, soybean cv Tachinagaha)
1 | CCC(=NN=C1CCc2ccccc21)OCc1c(C)cccc1-n1nnn(C)c1=O [E-1] | ≤ 30 | ≤ 30 | ≤ 30 | ≤ 30 | ≤ 30 | ≤ 10 | ≤ 30 | ≤ 30 | ≤ 30 | ≤ 30 |  |  |  |  |  |  | 
2 | CCC(=NN=C1CCc2cc(F)ccc21)OCc1c(C)cccc1-n1nnn(C)c1=O [E-3] | ≤ 30 | ≤ 30 | ≤ 30 | ≤ 30 | ≤ 30 | ≤ 10 | ≤ 30 | ≤ 30 | ≤ 30 | ≤ 30 | ≤ 30 | ≤ 30 | ≤ 30 | ≤ 30 | ≤ 30 |  | 
3 | CCC(=NN=C1CCOc2c(F)cccc21)OCc1c(C)cccc1-n1nnn(C)c1=O [E-15] | ≤ 30 | ≤ 30 | ≤ 30 | ≤ 30 | ≤ 30 |  | ≤ 30 | ≤ 30 | ≤ 30 | ≤ 30 | ≤ 30 | ≤ 30 | ≤ 30 | ≤ 30 | ≤ 30 | ≤ 35 | 
4 | CCC(=NN=C1CCOc2cc(F)ccc21)OCc1c(C)cccc1-n1nnn(C)c1=O [E-16] | ≤ 30 | ≤ 30 | ≤ 30 | ≤ 30 | ≤ 30 | ≤ 10 | ≤ 30 | ≤ 30 | ≤ 30 | ≤ 30 | ≤ 30 | ≤ 30 | ≤ 30 | ≤ 30 | ≤ 30 | ≤ 35 | less than 30%
